The list shows a part of the results, in another mix than the full data. For part of these data: At the low end of the ranking, values are background and their order means little. The list shows a part of the results. For part of these data: The exact form of the protein is not confirmed.

Protein sequences, listed by entry. Tags and fused reporters are not part of them. Lines headed by an entry give the natural chain unless they say otherwise; changes in a name come on top.
UniProt P32519: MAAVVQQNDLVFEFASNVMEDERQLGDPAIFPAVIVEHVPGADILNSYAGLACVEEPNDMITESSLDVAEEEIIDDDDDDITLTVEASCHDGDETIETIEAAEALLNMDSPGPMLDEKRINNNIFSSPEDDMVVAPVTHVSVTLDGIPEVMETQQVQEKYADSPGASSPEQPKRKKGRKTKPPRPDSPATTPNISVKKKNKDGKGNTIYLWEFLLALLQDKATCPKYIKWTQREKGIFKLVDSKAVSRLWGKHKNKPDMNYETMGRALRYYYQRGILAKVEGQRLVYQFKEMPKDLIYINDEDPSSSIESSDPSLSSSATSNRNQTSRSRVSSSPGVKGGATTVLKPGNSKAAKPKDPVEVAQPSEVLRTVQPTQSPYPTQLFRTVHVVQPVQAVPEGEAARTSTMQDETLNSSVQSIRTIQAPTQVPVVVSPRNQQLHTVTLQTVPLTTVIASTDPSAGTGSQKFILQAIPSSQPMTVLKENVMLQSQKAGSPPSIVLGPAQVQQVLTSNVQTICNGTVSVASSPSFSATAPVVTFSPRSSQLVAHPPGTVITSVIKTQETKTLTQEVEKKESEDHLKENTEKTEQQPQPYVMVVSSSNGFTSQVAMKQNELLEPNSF
UniProt P50549: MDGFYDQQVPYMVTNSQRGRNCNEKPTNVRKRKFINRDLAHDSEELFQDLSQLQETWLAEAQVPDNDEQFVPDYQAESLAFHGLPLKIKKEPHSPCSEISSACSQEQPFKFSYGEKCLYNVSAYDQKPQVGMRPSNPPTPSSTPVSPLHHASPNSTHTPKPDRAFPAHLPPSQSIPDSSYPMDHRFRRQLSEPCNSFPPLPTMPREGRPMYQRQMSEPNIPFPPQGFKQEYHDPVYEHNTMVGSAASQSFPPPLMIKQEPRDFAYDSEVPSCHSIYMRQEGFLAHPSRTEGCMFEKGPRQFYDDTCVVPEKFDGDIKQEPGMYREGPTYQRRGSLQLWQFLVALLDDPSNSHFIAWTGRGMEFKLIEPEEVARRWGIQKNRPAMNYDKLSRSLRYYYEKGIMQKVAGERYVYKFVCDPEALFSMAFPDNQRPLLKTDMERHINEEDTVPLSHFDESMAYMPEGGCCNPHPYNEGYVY

This passage reports binding signal results from paper PMC7862700.

What all share (assay): DAPPL (digital affinity profiling via proximity ligation, sequencing)
Conditions in all cases: 10 mM Tris-HCl pH 7.5, 50 mM NaCl, 1 mM DTT, 4% glycerol, room temperature, 30 min; GST-TFs on glutathione beads, 16-mer random dsDNA library, 0.1% …; high values mean tight binding; double strand, one strand shown; scale: fold enrichment (6-mer frequency, TF over GST control)

One assay concerns the target T1, ERG (UniProt P11308).
T1 sequence: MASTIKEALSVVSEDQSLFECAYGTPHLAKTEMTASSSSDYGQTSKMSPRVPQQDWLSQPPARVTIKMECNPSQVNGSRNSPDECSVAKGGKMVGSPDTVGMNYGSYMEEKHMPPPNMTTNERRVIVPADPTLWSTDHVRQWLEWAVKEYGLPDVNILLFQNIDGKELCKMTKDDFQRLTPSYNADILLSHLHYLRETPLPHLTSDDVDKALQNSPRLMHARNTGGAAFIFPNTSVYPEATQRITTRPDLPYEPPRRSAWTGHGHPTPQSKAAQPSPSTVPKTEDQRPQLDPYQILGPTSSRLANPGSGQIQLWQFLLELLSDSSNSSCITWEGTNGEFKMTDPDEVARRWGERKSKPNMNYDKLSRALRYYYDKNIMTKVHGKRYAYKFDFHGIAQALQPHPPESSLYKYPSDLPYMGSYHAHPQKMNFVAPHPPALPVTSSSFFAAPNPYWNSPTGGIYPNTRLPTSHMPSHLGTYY

The target of a further assay is ELF1 (UniProt P32519).
Another assay addresses T2, ELK4 (UniProt P28324-2).
T2 sequence: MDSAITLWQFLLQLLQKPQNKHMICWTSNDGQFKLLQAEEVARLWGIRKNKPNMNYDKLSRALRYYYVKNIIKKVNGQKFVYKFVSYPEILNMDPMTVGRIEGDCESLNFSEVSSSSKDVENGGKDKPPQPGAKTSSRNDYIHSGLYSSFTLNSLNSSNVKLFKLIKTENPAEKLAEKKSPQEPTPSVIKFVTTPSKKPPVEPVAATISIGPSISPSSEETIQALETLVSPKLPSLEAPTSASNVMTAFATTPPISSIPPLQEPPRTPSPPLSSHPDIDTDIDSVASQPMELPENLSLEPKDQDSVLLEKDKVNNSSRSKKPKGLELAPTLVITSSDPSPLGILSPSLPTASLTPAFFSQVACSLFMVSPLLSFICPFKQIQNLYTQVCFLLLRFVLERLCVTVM

The target of a further assay is T3, ETV4 (UniProt P43268).
T3 sequence: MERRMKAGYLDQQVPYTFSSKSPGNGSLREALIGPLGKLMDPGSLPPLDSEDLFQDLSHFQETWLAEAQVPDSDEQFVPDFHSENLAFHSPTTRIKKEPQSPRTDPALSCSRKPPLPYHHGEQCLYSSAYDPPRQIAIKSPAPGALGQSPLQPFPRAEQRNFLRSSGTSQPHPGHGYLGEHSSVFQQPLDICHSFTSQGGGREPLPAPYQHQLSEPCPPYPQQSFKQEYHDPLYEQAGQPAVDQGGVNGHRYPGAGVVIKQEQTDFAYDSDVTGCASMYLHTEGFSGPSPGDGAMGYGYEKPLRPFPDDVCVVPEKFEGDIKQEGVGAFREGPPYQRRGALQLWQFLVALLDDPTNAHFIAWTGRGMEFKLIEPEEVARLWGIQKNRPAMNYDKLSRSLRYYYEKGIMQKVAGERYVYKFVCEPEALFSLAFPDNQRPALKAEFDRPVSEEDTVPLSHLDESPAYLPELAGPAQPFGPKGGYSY

Another assay addresses ETV1 (UniProt P50549).
The next assay deals with T4, ERF (UniProt P50548).
T4 sequence: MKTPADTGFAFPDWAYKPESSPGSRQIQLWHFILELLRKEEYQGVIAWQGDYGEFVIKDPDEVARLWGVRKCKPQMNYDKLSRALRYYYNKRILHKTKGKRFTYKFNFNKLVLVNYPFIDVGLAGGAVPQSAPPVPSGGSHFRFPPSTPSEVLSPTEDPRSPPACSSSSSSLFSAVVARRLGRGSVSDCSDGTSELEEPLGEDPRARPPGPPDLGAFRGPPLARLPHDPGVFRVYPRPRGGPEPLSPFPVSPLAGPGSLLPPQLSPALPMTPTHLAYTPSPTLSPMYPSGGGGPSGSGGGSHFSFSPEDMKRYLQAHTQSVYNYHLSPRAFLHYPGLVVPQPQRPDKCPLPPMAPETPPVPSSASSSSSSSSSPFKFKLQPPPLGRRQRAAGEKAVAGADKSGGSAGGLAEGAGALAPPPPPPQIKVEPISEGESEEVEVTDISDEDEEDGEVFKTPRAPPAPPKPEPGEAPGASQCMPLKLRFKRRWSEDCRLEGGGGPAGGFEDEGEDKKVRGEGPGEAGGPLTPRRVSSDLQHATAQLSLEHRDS

In the case of AGTGTG, the binding signal was found to be 0.72 with ERG; 0.682 in the assay with ELF1; 0.836 with ELK4; 0.654 with ETV4; 0.781 with ETV1; 0.609 in the assay with ERF.
As to TCGTGT, the binding signal with ERG stood at 0.724; in the assay with ELF1 it was 0.754; with ELK4, 0.79; in the assay with ETV4 it was 0.76; in the assay with ETV1, 0.764; in the assay with ERF it was 0.892.
With TGTCGA, the binding signal amounted to 0.869 in the assay with ERG; 0.832 with ELF1; 0.879 with ELK4; 0.891 with ETV4; 0.885 with ETV1; 0.826 with ERF.
On to ACAGGT, for which the binding signal in the assay with ERG was 0.739; with ELF1, 0.734; in the assay with ELK4, 0.837; in the assay with ETV4, 0.694; with ETV1, 0.681; with ERF it was 0.756.
As to AGTGAT, the binding signal with ERG was 0.861; in the assay with ELF1, 0.838; in the assay with ELK4, 0.898; in the assay with ETV4, 0.822; with ETV1, 0.87; in the assay with ERF, 0.877.
On to GGAACG, for which the binding signal with ERG was 0.597; in the assay with ELF1, 0.603; with ELK4, 0.617; with ETV4, 0.588; with ETV1, 0.612; with ERF it was 0.54.
Regarding GTGCCA, the binding signal with ERG was found to be 0.796; with ELF1, 0.789; in the assay with ELK4 it was 0.783; with ETV4, 0.763; in the assay with ETV1, 0.781; in the assay with ERF, 0.741.
In the case of TGTGAG, the binding signal in the assay with ERG was 0.321; with ELF1 it was 0.335; with ELK4, 0.38; with ETV4 it was 0.375; with ETV1, 0.309; with ERF, 0.328.
Turning to GAGTAC, the binding signal in the assay with ERG was determined as 0.535; with ELF1, 0.506; with ELK4, 0.58; with ETV4 it was 0.488; in the assay with ETV1 it was 0.552; with ERF, 0.49.
Take AGCCCG: the binding signal with ERG stood at 0.853; with ELF1 it was 0.876; in the assay with ELK4 it was 0.909; in the assay with ETV4, 0.939; with ETV1, 0.888; with ERF it was 0.937.
With CAGTAA, the binding signal with ERG came out at 0.698; with ELF1, 0.737; with ELK4, 0.741; in the assay with ETV4, 0.748; with ETV1, 0.708; in the assay with ERF, 0.675.
Take GAGATT: the binding signal was 0.668 with ERG; 0.717 with ELF1; 0.702 with ELK4; 0.699 in the assay with ETV4; 0.718 with ETV1; 0.665 in the assay with ERF.
On to CCAGAC, for which the binding signal with ERG is 0.686; with ELF1, 0.668; with ELK4 it was 0.663; with ETV4, 0.652; in the assay with ETV1, 0.675; in the assay with ERF it was 0.642.
For CAGAGC, the binding signal stood at 0.785 with ERG; 0.857 with ELF1; 0.902 with ELK4; 0.851 in the assay with ETV4; 0.846 with ETV1; 0.874 in the assay with ERF.
Take GGCATC: the binding signal was 0.869 with ERG; 0.878 in the assay with ELF1; 0.888 in the assay with ELK4; 0.901 with ETV4; 0.858 in the assay with ETV1; 0.834 in the assay with ERF.
In the case of CAGTCT, the binding signal in the assay with ERG came to 0.752; with ELF1, 0.791; with ELK4 it was 0.83; in the assay with ETV4, 0.728; with ETV1 it was 0.725; in the assay with ERF it was 0.758.
For GAGGCA, the binding signal with ERG was 0.459; in the assay with ELF1, 0.454; in the assay with ELK4, 0.479; in the assay with ETV4, 0.415; with ETV1 it was 0.461; with ERF, 0.461.
Turning to ACGAGT, the binding signal with ERG was 0.686; with ELF1, 0.786; with ELK4, 0.765; with ETV4 it was 0.741; in the assay with ETV1, 0.801; with ERF it was 0.761.
With CAGGCC, the binding signal with ERG is 0.782; with ELF1, 0.744; with ELK4, 0.725; with ETV4 it was 0.751; with ETV1, 0.745; with ERF, 0.683.
As to GGTGCG, the binding signal with ERG is 0.585; with ELF1, 0.569; with ELK4, 0.642; with ETV4 it was 0.525; with ETV1 it was 0.526; with ERF it was 0.563.
TCGTAG: the binding signal was 0.841 with ERG; 0.84 with ELF1; 0.926 in the assay with ELK4; 0.851 in the assay with ETV4; 0.808 with ETV1; 0.794 in the assay with ERF.
Consider AGGTGA, for which the binding signal was determined as 0.52 with ERG; 0.601 in the assay with ELF1; 0.515 with ELK4; 0.578 in the assay with ETV4; 0.521 with ETV1; 0.533 in the assay with ERF.
Take GGGACG: the binding signal with ERG is 0.502; with ELF1, 0.498; with ELK4, 0.442; in the assay with ETV4, 0.459; in the assay with ETV1, 0.486; with ERF it was 0.556.
As to AACGAG, the binding signal with ERG is 0.794; with ELF1, 0.805; with ELK4, 0.844; in the assay with ETV4 it was 0.796; in the assay with ETV1, 0.787; with ERF, 0.785.
Consider GAGGCG, for which the binding signal with ERG turned out to be 0.418; with ELF1, 0.384; with ELK4, 0.41; with ETV4 it was 0.381; in the assay with ETV1 it was 0.444; with ERF it was 0.372.
On to CGTAGA, for which the binding signal is 0.723 with ERG; 0.751 in the assay with ELF1; 0.773 in the assay with ELK4; 0.693 with ETV4; 0.681 with ETV1; 0.728 with ERF.
Take CGCATT: the binding signal in the assay with ERG came out at 0.72; with ELF1 it was 0.812; with ELK4, 0.779; with ETV4, 0.78; with ETV1, 0.799; in the assay with ERF, 0.815.
GAAGGG: the binding signal was found to be 0.827 with ERG; 0.773 with ELF1; 0.822 in the assay with ELK4; 0.799 in the assay with ETV4; 0.821 with ETV1; 0.78 in the assay with ERF.
Take TGAGGT: the binding signal in the assay with ERG was determined as 0.604; in the assay with ELF1 it was 0.645; in the assay with ELK4, 0.722; in the assay with ETV4 it was 0.701; with ETV1, 0.663; with ERF, 0.621.
Regarding GGCGCA, the binding signal in the assay with ERG worked out at 0.629; in the assay with ELF1 it was 0.575; with ELK4, 0.681; in the assay with ETV4 it was 0.606; with ETV1, 0.574; in the assay with ERF, 0.586.
